Source: paper doi:10.1101/2025.11.14.688546, “Nuclear-import receptors remodel the dilute phase to suppress phase transitions of RNA-binding proteins with prion-like domains” (bioRxiv, 2025)
These are yes or no findings as the source states them, for the method shown. Some binding calls cover weakened binding; strength is not graded here.

The chains behind the UniProt entries cited, without tags or fusion partners. Where a name states a change or a piece, a line headed by the entry shows the natural chain unless it says otherwise. A line that says so, or that is headed by a name, gives the form on record, which may keep a tag or linker.
hnRNPA2 (P22626, form named): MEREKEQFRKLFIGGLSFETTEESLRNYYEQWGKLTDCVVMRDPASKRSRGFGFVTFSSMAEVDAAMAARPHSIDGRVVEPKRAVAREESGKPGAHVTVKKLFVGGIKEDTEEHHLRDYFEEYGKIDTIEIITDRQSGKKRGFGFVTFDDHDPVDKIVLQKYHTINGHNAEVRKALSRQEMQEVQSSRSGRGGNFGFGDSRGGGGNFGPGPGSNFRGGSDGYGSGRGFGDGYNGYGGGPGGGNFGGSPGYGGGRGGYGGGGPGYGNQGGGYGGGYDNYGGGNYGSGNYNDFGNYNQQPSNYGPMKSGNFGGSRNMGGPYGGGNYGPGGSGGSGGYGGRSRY
UniProt Q92973: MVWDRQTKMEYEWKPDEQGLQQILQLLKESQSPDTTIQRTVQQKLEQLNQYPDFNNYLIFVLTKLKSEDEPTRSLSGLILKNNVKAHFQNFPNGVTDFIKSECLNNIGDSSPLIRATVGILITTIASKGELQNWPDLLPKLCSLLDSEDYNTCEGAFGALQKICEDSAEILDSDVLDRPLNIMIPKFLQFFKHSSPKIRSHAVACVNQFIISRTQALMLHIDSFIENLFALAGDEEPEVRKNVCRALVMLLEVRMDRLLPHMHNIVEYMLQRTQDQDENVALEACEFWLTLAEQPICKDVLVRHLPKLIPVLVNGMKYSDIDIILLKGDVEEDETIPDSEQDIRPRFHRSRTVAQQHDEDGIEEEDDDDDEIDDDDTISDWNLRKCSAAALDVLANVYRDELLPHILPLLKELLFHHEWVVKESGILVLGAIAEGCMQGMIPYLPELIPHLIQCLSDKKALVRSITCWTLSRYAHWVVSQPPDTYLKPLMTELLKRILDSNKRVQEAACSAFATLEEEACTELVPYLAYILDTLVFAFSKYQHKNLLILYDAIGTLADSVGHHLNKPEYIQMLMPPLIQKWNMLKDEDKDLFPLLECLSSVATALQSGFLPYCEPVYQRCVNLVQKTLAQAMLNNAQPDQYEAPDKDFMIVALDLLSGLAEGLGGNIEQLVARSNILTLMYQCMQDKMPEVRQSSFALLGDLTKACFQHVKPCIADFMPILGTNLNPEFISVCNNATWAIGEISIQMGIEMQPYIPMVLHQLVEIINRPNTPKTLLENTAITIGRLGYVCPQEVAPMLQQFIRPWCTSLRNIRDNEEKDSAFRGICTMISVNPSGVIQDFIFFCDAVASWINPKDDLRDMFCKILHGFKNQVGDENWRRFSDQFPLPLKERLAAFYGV

Biological target: hnRNPA2 (UniProt P22626)
Test: microfluidic resistive pulse sensing (MRPS); fixed concentration of the RNA-binding protein above csat (2 μM FUS or FUS^P525L, 4 μM hnRNPA2) with increasing Kapβ2; MBP cleaved in situ by TEV, 1.5–2 h at room temperature; same buffers as for the proteins alone; both purified

binding: binds
Substance: Karyopherin-β2 (from UniProt Q92973 1-898)
